# The supplement of paper PMC7024190
# Counter-ions that a name gives are not always drawn. The list shows a part of the results. This data set is noisy: repeats of one test often differ as much as different tests do.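 A first-round screen of about ten thousand compounds sought those raising reporter output, using human embryonic kidney cells briefly transfected with a plasmid carrying a Renilla luciferase gene driven by the HSV-TK promoter.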
# Columns and labels:
# Assay in all cases: log relative Renilla luciferase luminescence (reporter expression vs reference, reference not stated) (log (base not stated)); higher = higher recombinant reporter expression
# Settings in all cases: 10 µM; time after transfection 48 h
# HEK 293FT [1] = system: HEK 293FT
# Method: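 HEK 293FT cells transiently transfected with pRL-TK (Renilla luciferase) were treated with compounds at 10 uM and luminescence was read about 42 h later. Values are log relative Renilla luminescence (log base and reference not stated). Single-pass screen; ICCB Known Bioactives library.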
# HEK 293FT [2] = system: HEK 293FT; remark: listed apart in the source
# HEK 293FT [3] = system: HEK 293FT; remark: listed apart in the source
# HEK 293FT [4] = system: HEK 293FT; remark: listed apart in the source
# HEK 293FT [5] = system: HEK 293FT; remark: listed apart in the source
# Method: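 HEK 293FT cells transiently transfected with pRL-TK (Renilla luciferase) were treated with compounds at 10 uM and luminescence was read about 42 h later. Values are log relative Renilla luminescence (log base and reference not stated). Single-pass screen; 2080 natural products library.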
structure (smiles),measurement,setting,value
CN(C)CCCn1cc(C2=C(c3c[nH]c4ccccc34)C(=O)NC2=O)c2ccccc21,log,HEK 293FT [1],-0.905
same,log,HEK 293FT [2],0.0637
CCCCCCCCCCCCC(O)C(=O)O (centres undefined) [2-Hydroxymyristic acid],log,HEK 293FT [1],-0.116
CC1(C)CCC(C)(C)c2cc(C(=O)Nc3ccc(C(=O)O)cc3)ccc21,log,HEK 293FT [1],0.0343
same,log,HEK 293FT [2],0.00532
"CCCCCCCCCC(=O)OCC(CO)OC(=O)CCCCCCCCC (centres undefined) [1,2-Didecanoyl-glycerol (10:0)]",log,HEK 293FT [1],-0.0601
NC1=NC2C(N=C(Br)N2C2O[C@H]3COP(=O)(O)O[C@@H]3[C@@H]2O)C(=O)N1 (some centres undefined) [Bromo-cGMP [8-Bromo-cGMP]],log,HEK 293FT [1],-0.12
O=C1C(SCCO)=C(SCCO)C(=O)c2ccccc21,log,HEK 293FT [1],-1.29
same,log,HEK 293FT [2],-0.614
COc1cc([C@@H]2c3cc4c(cc3[C@@H](O[C@@H]3O[C@@H]5CO[C@@H](C)O[C@H]5[C@H](O)[C@H]3O)[C@H]3COC(=O)[C@H]23)OCO4)cc(OC)c1O [Etoposide],log,HEK 293FT [1],-0.384
same,log,HEK 293FT [3],-0.77
same,log,HEK 293FT [2],-0.795
O=C(NCC1CCCCN1)c1cc(OCC(F)(F)F)ccc1OCC(F)(F)F (centres undefined) [Flecainide],log,HEK 293FT [1],-0.0297
CCCCC/C=C\C[C@@H](O)/C=C/C=C\C/C=C\CCCC(=O)O,log,HEK 293FT [1],-0.14
COC(=O)C1=C(C)NC(C)=C(C(=O)OCCSc2ccccc2)C1C (centres undefined),log,HEK 293FT [1],-0.36
same,log,HEK 293FT [4],0.118
same,log,HEK 293FT [2],0.00743
CCCCC[C@H](O)/C=C/[C@H]1[C@H](O)CC(=O)[C@@H]1CCCCCCC(=O)O [Prostaglandin E1],log,HEK 293FT [1],-0.117
same,log,HEK 293FT [3],0.0571
O=c1c(O)c(-c2ccc(O)c(O)c2)oc2cc(O)cc(O)c12 [Quercetin],log,HEK 293FT [1],-0.226
same,log,HEK 293FT [5],-0.0581
NC(=O)c1ccc(-c2nc(-c3ccccn3)c(-c3ccc4c(c3)OCO4)[nH]2)cc1,log,HEK 293FT [1],-0.722
same,log,HEK 293FT [2],0.225
"O=c1oc(Cl)c(Cl)c2ccccc12 [3,4-Dichloroisocoumarin]",log,HEK 293FT [1],0.00644
CN/C(=N\c1ccc(C2=NNC(=O)CC2C)cc1)NC#N (centres undefined) [Siguazodan],log,HEK 293FT [1],-0.534
same,log,HEK 293FT [2],0.0525
CCOC(=O)C1=C(C)NC(=S)NC1c1cccc(O)c1 (centres undefined) [Monastrol],log,HEK 293FT [1],0.342
same,log,HEK 293FT [4],0.0735
same,log,HEK 293FT [2],-0.0369
CCCc1c(OCCCCc2nnn[nH]2)ccc(C(C)=O)c1O,log,HEK 293FT [1],-0.119
same,log,HEK 293FT [3],0.0439
Fc1ccc(C(c2ccc(F)cc2)N2CCN(C/C=C/c3ccccc3)CC2)cc1 [Flunarizine],log,HEK 293FT [1],0.0506
same,log,HEK 293FT [4],0.0177
C=C(C)[C@@H]1CC[C@]2(C(=O)O)CC[C@]3(C)[C@H](CC[C@@H]4[C@@]5(C)CC[C@H](O)C(C)(C)[C@@H]5CC[C@]43C)[C@@H]12 [Betulinic acid],log,HEK 293FT [1],-0.186
same,log,HEK 293FT [5],-0.0729
CC(O)(C(=O)Nc1ccc(S(=O)(=O)c2ccccc2)cc1)C(F)(F)F (centres undefined),log,HEK 293FT [1],-0.812
same,log,HEK 293FT [2],-0.0416
COc1ccc(C2CNC(=O)C2)cc1OC1CCCC1 (centres undefined) [Rolipram],log,HEK 293FT [1],-0.308
same,log,HEK 293FT [2],0.0515
CCCCCCCCCCCCCCCC(=O)C1=C(O)[C@@H](CO)OC1=O,log,HEK 293FT [1],-0.00816
CC(=Cc1ccc(C(=O)O)cc1)c1ccc2c(c1)C(C)(C)CCC2(C)C,log,HEK 293FT [1],-0.0503
same,log,HEK 293FT [2],-0.0524
Oc1ccc(/C=C/c2cc(O)cc(O)c2)cc1 [Resveratrol],log,HEK 293FT [1],-0.636
same,log,HEK 293FT [5],0.0772
same,log,HEK 293FT [2],0.0836
C=CC[C@@H]1/C=C(\C)C[C@H](C)C[C@H](OC)[C@H]2O[C@@](O)(C(=O)C(=O)N3CCCC[C@H]3C(=O)O[C@H](/C(C)=C/[C@@H]3CC[C@@H](O)[C@H](OC)C3)[C@H](C)[C@@H](O)CC1=O)[C@H](C)C[C@@H]2OC,log,HEK 293FT [1],0.316
same,log,HEK 293FT [3],-0.0818
CCOC(=O)C1=C(C)NC(C)=C(C(=O)OC)C1c1cccc([N+](=O)[O-])c1 (centres undefined) [Nitrendipine],log,HEK 293FT [1],-1.43
same,log,HEK 293FT [2],0.035
COc1ccc(CCCOC(Cn2ccnc2)c2ccc(OC)cc2)cc1 (centres undefined),log,HEK 293FT [1],0.184
same,log,HEK 293FT [2],0.0438
Oc1c2ccccc2c2c3c(cccc13)N=N2,log,HEK 293FT [1],0.0574
same,log,HEK 293FT [2],-0.0437
N#CC(=C(/N)Sc1ccccc1N)/C(C#N)=C(/N)Sc1ccccc1N,log,HEK 293FT [1],0.0907
same,log,HEK 293FT [2],0.0525
CNC(=O)[C@H]1O[C@@H](n2cnc3c(NCc4cccc(I)c4)ncnc32)[C@H](O)[C@@H]1O,log,HEK 293FT [1],-0.251
same,log,HEK 293FT [2],0.457
Oc1ccc(-c2nc(-c3ccc(F)cc3)c(-c3ccncc3)[nH]2)cc1,log,HEK 293FT [1],-0.256
same,log,HEK 293FT [2],-0.428
O=C(O)CN1C(=O)c2cccc3cccc(c23)C1=O [Alrestatin],log,HEK 293FT [1],-0.0571
same,log,HEK 293FT [2],0.118
CCCCC[C@H](O)/C=C/[C@H]1[C@H](O)CC(=O)[C@@H]1C/C=C\CCCC(=O)O [Prostaglandin E2],log,HEK 293FT [1],-0.0792
same,log,HEK 293FT [2],-0.0566
CCOC(=O)C1=C[C@]2(CC)CCCN3CCc4c(n1c1ccccc41)[C@@H]32 [Vinpocetine],log,HEK 293FT [1],-0.303
same,log,HEK 293FT [2],-0.00649
COCCOC(=O)C1=C(C)NC(C)=C(C(=O)OC(C)C)C1c1cccc([N+](=O)[O-])c1 (centres undefined) [Nimodipine],log,HEK 293FT [1],-0.0475
same,log,HEK 293FT [2],-0.0452
Clc1cccc(Nc2nnc(-c3ccccc3)c3ccccc23)c1,log,HEK 293FT [1],-0.428
same,log,HEK 293FT [2],0.0958
N#C/C(=C\c1ccc(O)c(O)c1)C(=O)NCc1ccccc1,log,HEK 293FT [1],-0.391
same,log,HEK 293FT [2],0.0747
O=C1Nc2ccc(I)cc2/C1=C/c1cc(Br)c(O)c(Br)c1,log,HEK 293FT [1],-0.113
same,log,HEK 293FT [2],0.0637
CN1C(C(=O)Nc2ccccn2)=C(O)c2ccccc2S1(=O)=O [Piroxicam],log,HEK 293FT [1],-0.374
same,log,HEK 293FT [3],-0.044
CC(=O)O[C@H]1CC(C)=C2C(=O)C=C(C)[C@@H]2[C@H]2OC(=O)[C@@H](C)[C@@H]21 [Matricarin],log,HEK 293FT [4],0.0922
COc1cc(C)c(C(=O)Oc2cc(C)c(C(=O)O)c(O)c2C)c(OC)c1C [Diffractaic acid],log,HEK 293FT [4],0.149
COc1ccc2[nH]cc(C3CCCN(C(C)=O)C3)c2c1 (centres undefined),log,HEK 293FT [4],-0.0321
O=C(O)c1cc(O)c2c(c1)C(=O)c1cccc(O)c1C2=O [Rhein],log,HEK 293FT [4],-0.346
O=C1c2c(O)ccc(O)c2C(=O)c2c(NCCNCCO)ccc(NCCNCCO)c21 [Mitoxantrone Hydrochloride],log,HEK 293FT [4],-1.08
OC(CNCC(O)C1CCc2cc(F)ccc2O1)C1CCc2cc(F)ccc2O1 (centres undefined) [Nebivolol Hydrochloride],log,HEK 293FT [4],-0.0334
COc1ccnc(C[S+]([O-])c2nc3cc(OC(F)F)ccc3[nH]2)c1OC (centres undefined) [Pantoprazole Sodium],log,HEK 293FT [4],-0.748
O=C(O)[C@H](CC(=O)N1C[C@H]2CCCC[C@H]2C1)Cc1ccccc1 [Mitiglinide],log,HEK 293FT [4],0.029
OCCN1CCN(CCCN2c3ccccc3Sc3ccc(C(F)(F)F)cc32)CC1 [Fluphenazine],log,HEK 293FT [4],0.129
CCOc1nc2cccc(C(=O)OC(C)OC(=O)OC3CCCCC3)c2n1Cc1ccc(-c2ccccc2-c2nn[nH]n2)cc1 (centres undefined) [Candesartan Cilexetil],log,HEK 293FT [4],0.0633
O=C(N/N=C/c1ccc(O)cc1)c1ccncc1 [Flavoteben],log,HEK 293FT [4],0.103
COc1cc(C(=S)N2CCOCC2)cc(OC)c1OC [Tritiozine],log,HEK 293FT [4],0.192
COc1ccc(-c2nc3cc(C4=NNC(=O)CC4C)ccc3[nH]2)cc1 (centres undefined) [Pimobendan],log,HEK 293FT [4],-0.0912
NCc1ccc(S(N)(=O)=O)cc1 [Mafenide],log,HEK 293FT [4],-0.258
CC(=O)Oc1ccc2ccc(=O)oc2c1 [7-Acetoxycoumarin],log,HEK 293FT [4],0.0513
COc1cccc(CCc2ccccc2OCC(CN(C)C)OC(=O)CCC(=O)O)c1 (centres undefined) [Sarpogrelate Hydrochloride],log,HEK 293FT [4],-0.156
CC(C)c1nc(N(C)S(C)(=O)=O)nc(-c2ccc(F)cc2)c1/C=C/[C@@H](O)C[C@@H](O)CC(=O)O [Rosuvastatin Calcium],log,HEK 293FT [4],-0.00528
COc1c2[nH]c3occc3c(OC)c-2ccc1=O [Haplopine],log,HEK 293FT [4],0.0805
COc1ccc(NS(=O)(=O)c2ccc(N)cc2)nn1 [Sulfamethoxypyridazine],log,HEK 293FT [4],0.0222
C/C=C(\C)C(=O)O[C@@H]1c2c(ccc3ccc(=O)oc23)OC(C)(C)[C@@H]1OC(C)=O [Pteryxin],log,HEK 293FT [4],0.116
COc1ccccc1N1CCN(CC(O)COc2cccc3ccccc23)CC1 (centres undefined) [Naftopidil],log,HEK 293FT [4],0.0502
CC(=O)Nc1ccc(S(=O)(=O)Nc2ccc(S(N)(=O)=O)cc2)cc1 [Acetyldisulfanilamide],log,HEK 293FT [4],0.0918
Nc1ncnc(Nc2ccccc2)n1 [Amanozine],log,HEK 293FT [4],-1.22
OCCc1c[nH]c2ccccc12 [Tryptophol],log,HEK 293FT [4],0.0301
CCN(CC)CCOCCOC(=O)C(CC)(CC)c1ccccc1 [Oxeladin Citrate],log,HEK 293FT [4],-0.0207
CC(=O)OCC(=O)[C@@]1(O)CC[C@H]2[C@@H]3C[C@H](C)C4=CC(=O)C=C[C@]4(C)[C@H]3[C@@H](O)C[C@@]21C [Methylprednisolone acetate],log,HEK 293FT [4],-0.02
CN1C(=S)SC(c2ccccc2)N(C)C1c1ccccc1 (centres undefined),log,HEK 293FT [4],0.142
CCOC(=O)c1cnc2cc(OCC(C)C)c(OCC(C)C)cc2c1O [Buquinolate],log,HEK 293FT [4],-0.241
CC1(C)C=Cc2c(O)nc3ccccc3c2O1 [Flindersine],log,HEK 293FT [4],-0.126
O=C(O)c1ccccc1C(=O)Nc1ccc(S(=O)(=O)Nc2nccs2)cc1 [Phthalylsulfathiazole],log,HEK 293FT [4],-0.0803
COc1ccc2nc(NC(=O)Nc3ccccc3)sc2c1 [Frentizole],log,HEK 293FT [4],0.0913
Cc1c(NC(=O)c2cccnc2)c(=O)n(-c2ccccc2)n1C [Nifenazone],log,HEK 293FT [4],0.171
CNC(=O)c1nc[nH]c1C(=O)NC [Norantiffein],log,HEK 293FT [4],0.0664
COC1=C(OC)C(=O)C(C/C=C(\C)CC/C=C(\C)CC/C=C(\C)CC/C=C(\C)CC/C=C(\C)CC/C=C(\C)CC/C=C(\C)CC/C=C(\C)CC/C=C(\C)CCC=C(C)C)=C(C)C1=O [Coenzyme q10],log,HEK 293FT [4],0.0674
CC(C)=CCC[C@](C)(O)C1CC=C(C)CC1 (some centres undefined) [Bisabolol],log,HEK 293FT [4],-0.0627
Cc1cc(=O)oc2cc(O)ccc12 [Hymecromone],log,HEK 293FT [4],0.139
C#CCOc1ccc2c(C)cc(=O)oc2c1 [Giparmen],log,HEK 293FT [4],0.0942
CCC(N)(C(=O)O)P(=O)(O)O (centres undefined) [Aminophosphonobutyric acid],log,HEK 293FT [4],-0.168
CC(C)(C)NC[C@H](O)c1ccc(O)c(CO)c1 [Levalbuterol Hydrochloride],log,HEK 293FT [4],-0.236

# Exported tab-delimited: entries from further up
structure (smiles)	measurement	setting	value
CCCCCCCCCCCCC(O)C(=O)O (centres undefined) [2-Hydroxymyristic acid]	log	HEK 293FT [1]	-0.116
CC1(C)CCC(C)(C)c2cc(C(=O)Nc3ccc(C(=O)O)cc3)ccc21	log	HEK 293FT [1]	0.0343

# Reprinted from the listing for reference:
structure (smiles),measurement,setting,value
NC(=O)c1ccc(-c2nc(-c3ccccn3)c(-c3ccc4c(c3)OCO4)[nH]2)cc1,log,HEK 293FT [2],0.225
"O=c1oc(Cl)c(Cl)c2ccccc12 [3,4-Dichloroisocoumarin]",log,HEK 293FT [1],0.00644
CN/C(=N\c1ccc(C2=NNC(=O)CC2C)cc1)NC#N (centres undefined) [Siguazodan],log,HEK 293FT [1],-0.534
same,log,HEK 293FT [2],0.0525
CCOC(=O)C1=C(C)NC(=S)NC1c1cccc(O)c1 (centres undefined) [Monastrol],log,HEK 293FT [1],0.342
